Laboratory results: patent publication US11214578B2, “Urea/carbamates FAAH MAGL or dual FAAH/MAGL inhibitors and uses thereof” (Northeastern University, priority 2014, dated 2022)
Read-outs that look alike come from different tables or passages of the source. Structures were worked out from names or drawings and are uncertain.

The chains behind the UniProt entries cited, without tags or fusion partners. Where a name states a change or a piece, a line headed by the entry shows the natural chain unless it says otherwise. Residues count along the entry.
UniProt Q99685, whole entry: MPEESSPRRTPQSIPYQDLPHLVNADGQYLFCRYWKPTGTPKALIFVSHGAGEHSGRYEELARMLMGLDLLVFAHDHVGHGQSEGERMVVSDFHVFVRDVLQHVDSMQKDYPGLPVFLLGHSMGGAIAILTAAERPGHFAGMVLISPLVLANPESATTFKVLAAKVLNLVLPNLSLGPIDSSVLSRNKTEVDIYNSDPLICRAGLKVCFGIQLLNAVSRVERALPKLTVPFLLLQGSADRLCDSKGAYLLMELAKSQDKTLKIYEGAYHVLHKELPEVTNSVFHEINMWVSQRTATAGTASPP
UniProt P97612, 30-579 limits assumed, stated change not applied: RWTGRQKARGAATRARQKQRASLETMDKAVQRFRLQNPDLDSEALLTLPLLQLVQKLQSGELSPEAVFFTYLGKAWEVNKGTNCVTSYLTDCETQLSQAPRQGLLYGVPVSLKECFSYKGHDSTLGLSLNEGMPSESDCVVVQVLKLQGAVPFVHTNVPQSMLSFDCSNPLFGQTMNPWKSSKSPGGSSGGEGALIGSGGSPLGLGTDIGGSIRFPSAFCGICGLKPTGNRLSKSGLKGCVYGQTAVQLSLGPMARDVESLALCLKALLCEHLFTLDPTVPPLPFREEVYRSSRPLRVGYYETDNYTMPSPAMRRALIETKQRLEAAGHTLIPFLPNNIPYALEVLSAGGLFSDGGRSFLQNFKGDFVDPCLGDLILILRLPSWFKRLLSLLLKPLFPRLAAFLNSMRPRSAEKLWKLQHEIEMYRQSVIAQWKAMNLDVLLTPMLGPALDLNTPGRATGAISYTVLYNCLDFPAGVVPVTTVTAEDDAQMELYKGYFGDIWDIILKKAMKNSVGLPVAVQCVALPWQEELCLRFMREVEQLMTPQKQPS
UniProt O00519, 30-579 limits assumed, stated change not applied: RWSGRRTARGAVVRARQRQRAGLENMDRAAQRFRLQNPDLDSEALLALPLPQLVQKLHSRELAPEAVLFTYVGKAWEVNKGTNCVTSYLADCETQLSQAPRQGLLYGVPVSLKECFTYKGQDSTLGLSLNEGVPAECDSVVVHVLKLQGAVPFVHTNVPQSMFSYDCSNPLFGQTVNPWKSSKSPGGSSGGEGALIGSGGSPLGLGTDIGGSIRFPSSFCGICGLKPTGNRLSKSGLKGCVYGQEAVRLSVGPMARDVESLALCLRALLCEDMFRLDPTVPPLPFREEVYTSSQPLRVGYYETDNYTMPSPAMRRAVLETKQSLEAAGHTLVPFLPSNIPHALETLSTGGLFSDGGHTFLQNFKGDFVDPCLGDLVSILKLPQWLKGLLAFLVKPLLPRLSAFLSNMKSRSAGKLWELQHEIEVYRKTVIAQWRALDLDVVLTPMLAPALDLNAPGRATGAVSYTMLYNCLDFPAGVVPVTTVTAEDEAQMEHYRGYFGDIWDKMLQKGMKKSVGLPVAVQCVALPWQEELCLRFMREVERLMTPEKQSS
UniProt Q8R431, whole entry: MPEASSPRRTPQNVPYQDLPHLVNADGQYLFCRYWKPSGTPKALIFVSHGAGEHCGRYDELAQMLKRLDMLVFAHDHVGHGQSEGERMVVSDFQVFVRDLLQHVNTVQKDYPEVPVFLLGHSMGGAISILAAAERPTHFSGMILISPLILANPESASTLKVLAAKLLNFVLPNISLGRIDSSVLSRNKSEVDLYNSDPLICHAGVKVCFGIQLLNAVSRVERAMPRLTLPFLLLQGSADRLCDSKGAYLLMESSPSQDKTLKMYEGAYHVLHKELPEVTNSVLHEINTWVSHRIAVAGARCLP

Experiments:
Human MAGL (hMAGL) = Human MAGL (hMAGL) (Homo sapiens, UniProt Q99685); test: Fluorescent assay protocol for hMAGL (AHMMCE substrate); type: biochemical; conditions: read-out: IC50 hMAGL
ΔTM rat FAAH = ΔTM rat FAAH (Rattus norvegicus, UniProt P97612); test: Fluorescent assay protocol for ΔTM rat FAAH (AAMCA substrate); type: biochemical; conditions: read-out: IC50 rFAAH
Human FAAH (MBPΔTMhFAAH) = Human FAAH (MBPΔTMhFAAH) (Homo sapiens, UniProt O00519); test: Fluorescent assay protocol for hFAAH; conditions: read-out: IC50 hFAAH
Rat MAGL (rMAGL) = Rat MAGL (rMAGL) (Rattus norvegicus, UniProt Q8R431); test: Fluorescent assay protocol for rMAGL; type: biochemical; conditions: read-out: IC50 rMAGL
[1] = recombinant human MAGL, AHMMCE substrate, 15 min preincubation
[2] = ΔTM rat FAAH, AAMCA substrate, 15 min preincubation
[3] = human FAAH (MBP fusion, ΔTM), procedure as for rFAAH
[4] = recombinant rat MAGL, procedure as for hMAGL

| SMILES | IC50 (Human MAGL (hMAGL); [1]) | IC50 (ΔTM rat FAAH; [2]) | IC50 (Human FAAH (MBPΔTMhFAAH); [3]) | IC50 (Rat MAGL (rMAGL); [4]) | IC50 (Human MAGL (hMAGL)) | IC50 (ΔTM rat FAAH) | IC50 (Human FAAH (MBPΔTMhFAAH)) | IC50 (Rat MAGL (rMAGL)) |
| --- | --- | --- | --- | --- | --- | --- | --- | --- |
| O=C(Nc1cccc(Br)c1)N1C[C@@H]2C[C@H]1CN2Cc1ccc2ccccc2n1 | > 1000 nM | 10 to 100 nM | 10 to 100 nM | > 1000 nM |  |  |  |  |
| O=C(N1C[C@@H]2C[C@H]1CN2c1cccc(OCc2ccccc2)c1)n1cnc(-c2ccccc2)c1 | > 1000 nM | > 1000 nM | > 1000 nM | > 1000 nM |  |  |  |  |
| C[C@H]1CN(Cc2cccc(Oc3ccccc3)c2)CCN1C(=O)Nc1cccc(-c2cccc(C#N)c2)c1 |  |  |  |  | > 1000 nM | 10 to 100 nM | 10 to 100 nM | > 1000 nM |
